Experimental data published in PMC2672601.
These are yes or no findings as the source states them, for the method shown. Binding seen in cells or lysates may run through a third protein. Some binding calls cover weakened binding; strength is not graded here. Sequences can lack the tags named with a protein.

By UniProt entry, the sequences of proteins in these tests, tags left out. Residues count along the entry.
UniProt Q62277: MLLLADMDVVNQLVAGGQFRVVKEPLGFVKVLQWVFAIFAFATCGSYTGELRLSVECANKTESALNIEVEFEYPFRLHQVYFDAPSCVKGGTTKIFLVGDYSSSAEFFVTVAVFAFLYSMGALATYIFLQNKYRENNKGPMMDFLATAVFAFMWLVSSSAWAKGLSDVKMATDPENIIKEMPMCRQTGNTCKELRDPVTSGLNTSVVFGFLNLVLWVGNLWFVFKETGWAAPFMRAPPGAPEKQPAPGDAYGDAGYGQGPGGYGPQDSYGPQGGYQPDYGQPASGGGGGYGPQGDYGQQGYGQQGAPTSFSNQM
UniProt P16305, residues 20-453: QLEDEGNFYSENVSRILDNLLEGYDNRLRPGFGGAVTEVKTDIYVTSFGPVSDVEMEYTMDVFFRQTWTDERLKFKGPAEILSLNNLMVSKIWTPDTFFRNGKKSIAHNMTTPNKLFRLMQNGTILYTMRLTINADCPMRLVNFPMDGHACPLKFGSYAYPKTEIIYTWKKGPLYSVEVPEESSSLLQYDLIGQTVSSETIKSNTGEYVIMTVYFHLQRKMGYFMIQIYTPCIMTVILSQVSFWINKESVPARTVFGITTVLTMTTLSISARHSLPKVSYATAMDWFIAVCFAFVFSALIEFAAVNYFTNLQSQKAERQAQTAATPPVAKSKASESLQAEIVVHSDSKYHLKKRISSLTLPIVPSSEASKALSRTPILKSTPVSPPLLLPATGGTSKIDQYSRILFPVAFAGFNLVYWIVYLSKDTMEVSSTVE

T1: VGluRδ2 (fusion between Venus and the glutamate receptor delta2, GluRδ2) (UniProt Q61625)
T1 sequence: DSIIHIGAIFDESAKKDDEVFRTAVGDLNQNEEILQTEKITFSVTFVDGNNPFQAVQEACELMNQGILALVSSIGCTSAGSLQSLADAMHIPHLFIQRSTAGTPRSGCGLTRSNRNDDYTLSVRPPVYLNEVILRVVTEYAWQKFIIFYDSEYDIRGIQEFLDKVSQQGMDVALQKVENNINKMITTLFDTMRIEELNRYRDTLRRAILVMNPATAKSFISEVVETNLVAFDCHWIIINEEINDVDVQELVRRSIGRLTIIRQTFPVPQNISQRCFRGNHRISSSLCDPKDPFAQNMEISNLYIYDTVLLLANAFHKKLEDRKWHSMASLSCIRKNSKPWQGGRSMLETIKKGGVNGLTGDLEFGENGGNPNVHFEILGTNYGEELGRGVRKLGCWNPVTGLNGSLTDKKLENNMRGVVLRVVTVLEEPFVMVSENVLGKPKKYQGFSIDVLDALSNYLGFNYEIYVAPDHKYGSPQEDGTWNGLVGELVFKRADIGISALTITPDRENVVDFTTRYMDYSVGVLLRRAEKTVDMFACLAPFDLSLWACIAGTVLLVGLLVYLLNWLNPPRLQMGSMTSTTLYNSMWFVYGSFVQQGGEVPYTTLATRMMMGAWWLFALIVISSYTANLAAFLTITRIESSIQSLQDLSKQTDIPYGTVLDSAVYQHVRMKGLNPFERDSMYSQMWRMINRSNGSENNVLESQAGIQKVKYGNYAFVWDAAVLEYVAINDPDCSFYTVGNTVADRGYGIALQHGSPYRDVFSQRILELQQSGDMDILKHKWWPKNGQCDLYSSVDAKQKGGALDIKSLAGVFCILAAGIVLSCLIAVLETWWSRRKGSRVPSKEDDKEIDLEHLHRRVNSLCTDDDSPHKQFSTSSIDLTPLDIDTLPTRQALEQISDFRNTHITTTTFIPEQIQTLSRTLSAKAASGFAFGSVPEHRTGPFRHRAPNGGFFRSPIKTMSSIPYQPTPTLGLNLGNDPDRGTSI

T2: VGluRδ2 (fusion between Venus and the glutamate receptor delta2, GluRδ2), Q61625
T2 chain: T1 sequence

B1: glutamate receptor delta2, GluRδ2 (endogenous), Q61625 24-1007 (receptor)
chain: T1 sequence
B2: gephyrin (protein, UniProt Q8BUV3 1-769)
chain: MATEGMILTNHDHQIRVGVLTVSDSCFRNLAEDRSGINLKDLVQDPSLLGGTISAYKIVPDEIEEIKETLIDWCDEKELNLILTTGGTGFAPRDVTPEATKEVIEREAPGMALAMLMGSLNVTPLGMLSRPVCGIRGKTLIINLPGSKKGSQECFQFILPALPHAIDLLRDAIVKVKEVHDELEDLPSPPPPLSPPPTTSPHKQTEDKGVQCEEEEEEKKDSGVASTEDSSSSHITAAALAAKIPDSIISRGVQVLPRDTASLSTTPSESPRAQATSRLSTASCPTPKQIRRPDESKGVASRVGSLKARLPSCSSTYSVSEVQSRCSSKENILRASHSAVDITKVARRHRMSPFPLTSMDKAFITVLEMTPVLGTEIINYRDGMGRVLAQDVYAKDNLPPFPASVKDGYAVRAADGPGDRFIIGESQAGEQPTQTVMPGQVMRVTTGAPIPCGADAVVQVEDTELIRESDDGTEELEVRILVQARPGQDIRPIGHDIKRGECVLAKGTHMGPSEIGLLATVGVTEVEVNKFPVVAVMSTGNELLNPEDDLLPGKIRDSNRSTLLATIQEHGYPTINLGIVGDNPDDLLNALNEGISRADVIITSGGVSMGEKDYLKQVLDIDLHAQIHFGRVFMKPGLPTTFATLDIDGVRKIIFALPGNPVSAVVTCNLFVVPALRKMQGILDPRPTIIKARLSCDVKLDPRPEYHRCILTWHHQEPLPWAQSTGNQMSSRLMSMRSANGLLMLPPKTEQYVELHKGEVVDVMVIGRL

Experiments:
[1] = biological target: T1, VGluRδ2 (fusion between Venus and the glutamate receptor delta2, GluRδ2); experiment: co-IP; anti-GFP antibody on Dynabeads M-270 epoxy beads; pooled excitatory synaptic gel-filtration fractions of a crude synaptosome fraction (P2) solubilised in 0.5% Triton X-100, from ten cerebella of Pcp2/VGluRδ2 or Pcp2/eGFP mice; 1 h at 4 °C; wash with 300 mM NaCl, 0.5% Triton X-100; western blot of the affinity-purified samples
[2] = biological target: T2, VGluRδ2 (fusion between Venus and the …); experiment: co-IP; affinity purification with an anti-GFP antibody from 1% Triton X-100 cerebellar extracts of wild-type, Pcp2/VGluRδ2 and Pcp2/eGFP mice; immunoblot with anti-GFP and anti-GluRδ2 antibodies; conditions: remark: other sources report otherwise
[3] = biological target: T2, VGluRδ2 (fusion between Venus and the …); experiment: co-IP; anti-GFP antibody on Dynabeads M-270 epoxy beads; pooled excitatory synaptic gel-filtration fractions of a crude synaptosome fraction (P2) solubilised in 0.5% Triton X-100, from ten cerebella of Pcp2/VGluRδ2 or Pcp2/eGFP mice; 1 h at 4 °C; wash with 300 mM NaCl, 0.5% Triton X-100; western blot of the affinity-purified samples; conditions: remark: other sources report otherwise

Row | Molecule | binding [1] | binding [2] | binding [3]
1 | synaptophysin (from UniProt Q62277 1-314) | no binding |  | 
2 | GABA(A) receptor α6 (from UniProt P16305 20-453) | no binding |  | 
3 | synapsin I (from UniProt O88935 1-706) | no binding |  | 
4 | B1 |  | binds | binds
5 | B2 | no binding |  | 
